Measurements published in publication PMC8812845.
No constants are given. Whether binding was seen depends on the method and setting. In cells and extracts the contact can be indirect. These calls come from enrichment with a bait or labelling near it, and not all partners need be listed. For part of these data: Tags and fused reporters may be left off the sequences shown. Blank lines part the entries; values can stand above or below the molecule they belong to.

The chains behind the UniProt entries cited, without tags or fusion partners.
UniProt Q9UKA9: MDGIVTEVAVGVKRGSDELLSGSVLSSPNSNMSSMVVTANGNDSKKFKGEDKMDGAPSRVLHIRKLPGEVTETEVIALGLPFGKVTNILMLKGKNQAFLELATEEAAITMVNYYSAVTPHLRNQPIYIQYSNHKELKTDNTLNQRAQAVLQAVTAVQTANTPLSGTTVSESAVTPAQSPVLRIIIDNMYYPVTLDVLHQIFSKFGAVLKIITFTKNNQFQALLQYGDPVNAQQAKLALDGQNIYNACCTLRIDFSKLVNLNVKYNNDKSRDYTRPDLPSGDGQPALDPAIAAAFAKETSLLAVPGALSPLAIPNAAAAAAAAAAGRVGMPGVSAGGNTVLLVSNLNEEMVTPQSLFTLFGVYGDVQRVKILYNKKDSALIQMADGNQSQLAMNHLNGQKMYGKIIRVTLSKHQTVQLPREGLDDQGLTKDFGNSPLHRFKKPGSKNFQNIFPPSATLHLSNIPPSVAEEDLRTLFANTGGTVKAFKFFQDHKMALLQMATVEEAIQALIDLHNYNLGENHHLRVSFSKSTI
UniProt Q9NRF9: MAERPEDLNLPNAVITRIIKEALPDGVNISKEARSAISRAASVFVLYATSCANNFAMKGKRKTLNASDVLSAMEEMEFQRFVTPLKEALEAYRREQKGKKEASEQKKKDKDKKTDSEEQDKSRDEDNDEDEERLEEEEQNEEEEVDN
UniProt Q9Y6Q9: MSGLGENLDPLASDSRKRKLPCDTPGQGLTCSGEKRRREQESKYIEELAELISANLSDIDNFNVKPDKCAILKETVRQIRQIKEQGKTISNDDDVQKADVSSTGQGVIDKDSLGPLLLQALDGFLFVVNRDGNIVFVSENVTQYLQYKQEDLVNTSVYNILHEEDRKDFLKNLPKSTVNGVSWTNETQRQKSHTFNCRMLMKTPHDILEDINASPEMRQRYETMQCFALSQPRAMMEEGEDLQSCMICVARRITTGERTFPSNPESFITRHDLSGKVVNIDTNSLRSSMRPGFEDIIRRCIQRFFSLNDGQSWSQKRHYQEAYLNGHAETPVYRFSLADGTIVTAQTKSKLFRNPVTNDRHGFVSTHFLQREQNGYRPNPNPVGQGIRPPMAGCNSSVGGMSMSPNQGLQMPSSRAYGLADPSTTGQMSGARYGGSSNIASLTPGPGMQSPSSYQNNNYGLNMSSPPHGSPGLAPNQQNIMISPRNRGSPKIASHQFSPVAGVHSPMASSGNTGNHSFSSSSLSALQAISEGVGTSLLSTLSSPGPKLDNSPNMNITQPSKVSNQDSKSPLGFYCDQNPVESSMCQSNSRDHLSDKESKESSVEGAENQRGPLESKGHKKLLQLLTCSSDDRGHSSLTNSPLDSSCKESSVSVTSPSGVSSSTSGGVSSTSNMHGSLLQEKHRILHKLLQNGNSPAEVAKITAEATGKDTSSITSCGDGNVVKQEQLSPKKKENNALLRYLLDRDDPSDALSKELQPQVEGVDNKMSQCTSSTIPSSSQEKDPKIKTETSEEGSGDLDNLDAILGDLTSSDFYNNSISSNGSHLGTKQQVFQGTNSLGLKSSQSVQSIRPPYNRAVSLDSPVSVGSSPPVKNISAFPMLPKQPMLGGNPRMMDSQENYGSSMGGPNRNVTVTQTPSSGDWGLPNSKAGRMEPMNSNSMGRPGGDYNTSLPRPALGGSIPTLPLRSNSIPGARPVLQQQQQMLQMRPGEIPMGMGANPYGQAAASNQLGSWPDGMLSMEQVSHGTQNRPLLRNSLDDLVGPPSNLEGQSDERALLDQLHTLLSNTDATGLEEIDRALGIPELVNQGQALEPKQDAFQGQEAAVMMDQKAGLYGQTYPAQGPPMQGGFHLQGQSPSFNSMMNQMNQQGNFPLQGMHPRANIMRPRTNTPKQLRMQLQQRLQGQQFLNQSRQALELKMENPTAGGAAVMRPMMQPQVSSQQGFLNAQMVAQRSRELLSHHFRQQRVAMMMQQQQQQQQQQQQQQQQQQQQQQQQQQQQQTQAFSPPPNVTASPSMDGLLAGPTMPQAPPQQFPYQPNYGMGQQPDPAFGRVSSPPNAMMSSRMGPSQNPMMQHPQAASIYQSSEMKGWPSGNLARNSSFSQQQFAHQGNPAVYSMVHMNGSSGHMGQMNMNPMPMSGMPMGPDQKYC
UniProt Q9UBL3: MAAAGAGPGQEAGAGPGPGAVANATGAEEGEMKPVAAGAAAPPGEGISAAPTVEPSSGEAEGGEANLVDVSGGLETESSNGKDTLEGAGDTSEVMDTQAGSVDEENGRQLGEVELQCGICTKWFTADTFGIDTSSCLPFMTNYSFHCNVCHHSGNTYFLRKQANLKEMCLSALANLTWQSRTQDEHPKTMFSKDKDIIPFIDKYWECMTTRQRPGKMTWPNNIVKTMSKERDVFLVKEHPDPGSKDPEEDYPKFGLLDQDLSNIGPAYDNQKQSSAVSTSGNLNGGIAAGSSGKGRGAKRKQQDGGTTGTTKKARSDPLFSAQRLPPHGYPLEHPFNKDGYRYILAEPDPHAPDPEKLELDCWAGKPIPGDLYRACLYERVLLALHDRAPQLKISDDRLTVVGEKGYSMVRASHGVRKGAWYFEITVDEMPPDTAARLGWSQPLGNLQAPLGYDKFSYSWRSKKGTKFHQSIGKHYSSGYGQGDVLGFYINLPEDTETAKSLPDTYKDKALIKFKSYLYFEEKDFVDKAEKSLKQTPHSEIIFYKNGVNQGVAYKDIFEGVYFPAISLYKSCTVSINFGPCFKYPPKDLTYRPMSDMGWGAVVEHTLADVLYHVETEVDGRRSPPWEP
UniProt Q9ULD4: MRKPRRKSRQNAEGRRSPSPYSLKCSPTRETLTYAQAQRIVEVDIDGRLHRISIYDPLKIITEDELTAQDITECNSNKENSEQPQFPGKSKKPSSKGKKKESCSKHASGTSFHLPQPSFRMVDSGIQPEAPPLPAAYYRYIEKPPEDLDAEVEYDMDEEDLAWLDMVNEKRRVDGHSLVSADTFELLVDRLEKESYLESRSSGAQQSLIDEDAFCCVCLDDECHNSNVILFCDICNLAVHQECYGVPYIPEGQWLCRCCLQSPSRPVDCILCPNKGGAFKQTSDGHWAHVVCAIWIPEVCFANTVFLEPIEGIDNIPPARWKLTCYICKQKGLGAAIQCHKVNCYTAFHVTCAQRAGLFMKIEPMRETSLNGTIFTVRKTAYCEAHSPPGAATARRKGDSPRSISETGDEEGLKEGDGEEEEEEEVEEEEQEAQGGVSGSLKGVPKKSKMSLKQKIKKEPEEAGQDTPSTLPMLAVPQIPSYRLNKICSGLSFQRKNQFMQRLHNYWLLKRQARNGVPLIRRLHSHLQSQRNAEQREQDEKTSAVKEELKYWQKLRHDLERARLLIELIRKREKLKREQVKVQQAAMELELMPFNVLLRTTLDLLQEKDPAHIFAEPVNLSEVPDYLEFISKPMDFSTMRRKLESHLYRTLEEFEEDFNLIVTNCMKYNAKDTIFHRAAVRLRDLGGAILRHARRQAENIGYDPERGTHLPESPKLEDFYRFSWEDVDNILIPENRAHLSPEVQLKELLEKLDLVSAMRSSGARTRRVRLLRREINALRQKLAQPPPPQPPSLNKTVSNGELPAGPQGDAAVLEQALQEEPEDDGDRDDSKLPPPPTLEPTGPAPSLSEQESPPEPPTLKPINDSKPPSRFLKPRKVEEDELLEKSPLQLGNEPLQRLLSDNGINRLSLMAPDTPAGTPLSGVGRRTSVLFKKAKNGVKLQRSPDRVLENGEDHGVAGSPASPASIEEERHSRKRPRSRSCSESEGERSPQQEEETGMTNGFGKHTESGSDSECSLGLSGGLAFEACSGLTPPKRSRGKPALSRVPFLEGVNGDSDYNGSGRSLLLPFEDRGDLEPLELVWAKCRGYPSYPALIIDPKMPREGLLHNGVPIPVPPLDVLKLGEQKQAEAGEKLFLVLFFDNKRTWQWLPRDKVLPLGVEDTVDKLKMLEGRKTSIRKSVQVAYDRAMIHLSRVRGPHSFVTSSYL
UniProt Q9HCK8: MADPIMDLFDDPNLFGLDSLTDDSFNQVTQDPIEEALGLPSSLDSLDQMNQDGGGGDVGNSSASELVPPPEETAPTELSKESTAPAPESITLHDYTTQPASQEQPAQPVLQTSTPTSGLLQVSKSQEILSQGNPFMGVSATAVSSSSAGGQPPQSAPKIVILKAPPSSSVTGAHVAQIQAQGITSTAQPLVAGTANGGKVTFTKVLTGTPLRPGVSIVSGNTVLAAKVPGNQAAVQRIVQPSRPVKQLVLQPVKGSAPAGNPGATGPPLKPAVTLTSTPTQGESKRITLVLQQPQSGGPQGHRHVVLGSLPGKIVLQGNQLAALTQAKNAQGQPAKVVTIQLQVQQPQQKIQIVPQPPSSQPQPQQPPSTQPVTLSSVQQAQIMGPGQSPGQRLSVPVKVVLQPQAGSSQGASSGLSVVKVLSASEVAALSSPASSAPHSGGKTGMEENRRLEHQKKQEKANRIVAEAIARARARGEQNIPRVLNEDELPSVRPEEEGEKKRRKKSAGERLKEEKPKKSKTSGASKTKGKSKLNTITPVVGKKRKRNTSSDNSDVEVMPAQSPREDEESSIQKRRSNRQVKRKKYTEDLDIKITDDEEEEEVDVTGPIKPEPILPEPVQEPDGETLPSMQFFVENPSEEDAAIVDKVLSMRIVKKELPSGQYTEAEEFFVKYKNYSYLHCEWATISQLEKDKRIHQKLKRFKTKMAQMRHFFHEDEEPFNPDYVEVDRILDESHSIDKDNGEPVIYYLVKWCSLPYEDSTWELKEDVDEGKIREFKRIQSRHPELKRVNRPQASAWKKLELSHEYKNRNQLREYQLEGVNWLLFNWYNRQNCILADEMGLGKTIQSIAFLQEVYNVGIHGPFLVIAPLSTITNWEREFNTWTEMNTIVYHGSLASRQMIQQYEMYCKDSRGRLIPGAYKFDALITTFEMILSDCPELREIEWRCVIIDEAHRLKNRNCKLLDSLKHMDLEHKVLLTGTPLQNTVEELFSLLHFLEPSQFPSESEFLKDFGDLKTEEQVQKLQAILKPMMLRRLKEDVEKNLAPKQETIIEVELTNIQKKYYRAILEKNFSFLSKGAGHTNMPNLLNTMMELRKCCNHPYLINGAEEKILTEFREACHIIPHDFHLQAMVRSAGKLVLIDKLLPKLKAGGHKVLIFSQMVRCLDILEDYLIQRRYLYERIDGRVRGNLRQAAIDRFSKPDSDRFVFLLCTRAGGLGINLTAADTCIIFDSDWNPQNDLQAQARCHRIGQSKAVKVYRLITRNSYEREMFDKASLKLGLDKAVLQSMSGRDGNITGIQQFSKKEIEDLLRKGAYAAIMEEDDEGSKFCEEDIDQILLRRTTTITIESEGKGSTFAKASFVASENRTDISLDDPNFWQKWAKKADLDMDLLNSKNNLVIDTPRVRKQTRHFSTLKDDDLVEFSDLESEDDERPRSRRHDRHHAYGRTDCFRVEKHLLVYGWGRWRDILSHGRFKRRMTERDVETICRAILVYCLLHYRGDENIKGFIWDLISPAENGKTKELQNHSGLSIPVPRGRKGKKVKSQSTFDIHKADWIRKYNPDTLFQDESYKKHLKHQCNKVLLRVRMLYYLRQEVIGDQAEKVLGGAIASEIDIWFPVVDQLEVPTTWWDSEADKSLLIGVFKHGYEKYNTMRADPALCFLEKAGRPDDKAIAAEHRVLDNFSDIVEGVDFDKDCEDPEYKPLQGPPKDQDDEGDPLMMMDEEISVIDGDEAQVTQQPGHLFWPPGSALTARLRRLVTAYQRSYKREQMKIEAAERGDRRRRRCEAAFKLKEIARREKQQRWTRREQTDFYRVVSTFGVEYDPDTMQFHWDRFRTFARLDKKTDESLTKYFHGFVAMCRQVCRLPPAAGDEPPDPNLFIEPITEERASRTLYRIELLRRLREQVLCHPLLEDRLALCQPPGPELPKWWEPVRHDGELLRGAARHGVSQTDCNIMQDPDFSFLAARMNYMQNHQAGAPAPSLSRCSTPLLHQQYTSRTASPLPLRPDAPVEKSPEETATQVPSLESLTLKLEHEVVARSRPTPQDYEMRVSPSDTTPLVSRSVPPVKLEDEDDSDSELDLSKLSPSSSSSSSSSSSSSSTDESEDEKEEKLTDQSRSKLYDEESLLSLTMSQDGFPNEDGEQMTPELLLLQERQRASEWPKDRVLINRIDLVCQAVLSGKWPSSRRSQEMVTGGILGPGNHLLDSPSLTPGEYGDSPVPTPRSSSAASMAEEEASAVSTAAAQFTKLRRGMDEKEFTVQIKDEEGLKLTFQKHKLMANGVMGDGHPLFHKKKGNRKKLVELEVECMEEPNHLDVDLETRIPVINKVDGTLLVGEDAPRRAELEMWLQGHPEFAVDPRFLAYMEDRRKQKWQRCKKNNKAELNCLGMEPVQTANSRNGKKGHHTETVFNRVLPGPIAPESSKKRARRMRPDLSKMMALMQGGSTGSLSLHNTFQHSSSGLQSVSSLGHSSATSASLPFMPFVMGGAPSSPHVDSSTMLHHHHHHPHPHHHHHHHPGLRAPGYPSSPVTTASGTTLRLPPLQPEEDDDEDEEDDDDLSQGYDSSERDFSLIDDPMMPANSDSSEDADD

Legend:
[1] = target: His6-tagged PTBP2 (human) (UniProt Q9UKA9); assay: affinity purification with mass spectrometry; 48 ug His6-PTBP incubated in 200 ul splicing reaction (2.2 mM MgCl2, 0.4 mM ATP, 20 mM creatine phosphate, HeLa nuclear extract) at 30°C for 90 min; captured on HisPur Ni-NTA magnetic resin overnight at 4°C, washed (150 mM NaCl, 30 mM imidazole), eluted with 300 mM imidazole; LC-MS/MS; proteins of the Buffer DG and HeLa only controls and common contaminants removed; only the target purified
[2] = target: His6-tagged PTBP1 (human); assay: as above

Molecule: BAZ2A (from UniProt Q9UIF9 1-1905)
binding [1]: binds

Molecule: DPOE3 (from UniProt Q9NRF9 1-147)
binding [1]: binds

Molecule: GATA4 (from UniProt P43694 1-442)
binding [1]: binds

Molecule: nuclear receptor coactivator 3 (from UniProt Q9Y6Q9 1-1424)
binding [1]: binds

Molecule: ASH2 (from UniProt Q9UBL3 1-628)
binding [1]: binds

Molecule: lysine demethylase RSBN1 (from UniProt Q5VWQ0 1-802) (enzyme)
binding [1]: binds

Molecule: BSN (from UniProt Q9UPA5 1-3926)
binding [1]: binds

Molecule: UBE2H (from UniProt P62256 1-183)
binding [1]: binds

Molecule: BRPF3 (from UniProt Q9ULD4 1-1205)
binding [1]: binds

B1: RRP44 (protein, UniProt Q9Y2L1 1-958)
chain: MLKSKTFLKKTRAGGVMKIVREHYLRDDIGCGAPGCAACGGAHEGPALEPQPQDPASSVCPQPHYLLPDTNVLLHQIDVLEDPAIRNVIVLQTVLQEVRNRSAPVYKRIRDVTNNQEKHFYTFTNEHHRETYVEQEQGENANDRNDRAIRVAAKWYNEHLKKMSADNQLQVIFITNDRRNKEKAIEEGIPAFTCEEYVKSLTANPELIDRLACLSEEGNEIESGKIIFSEHLPLSKLQQGIKSGTYLQGTFRASRENYLEATVWIHGDNEENKEIILQGLKHLNRAVHEDIVAVELLPKSQWVAPSSVVLHDEGQNEEDVEKEEETERMLKTAVSEKMLKPTGRVVGIIKRNWRPYCGMLSKSDIKESRRHLFTPADKRIPRIRIETRQASTLEGRRIIVAIDGWPRNSRYPNGHFVRNLGDVGEKETETEVLLLEHDVPHQPFSQAVLSFLPKMPWSITEKDMKNREDLRHLCICSVDPPGCTDIDDALHCRELENGNLEVGVHIADVSHFIRPGNALDQESARRGTTVYLCEKRIDMVPELLSSNLCSLKCDVDRLAFSCIWEMNHNAEILKTKFTKSVINSKASLTYAEAQLRIDSANMNDDITTSLRGLNKLAKILKKRRIEKGALTLSSPEVRFHMDSETHDPIDLQTKELRETNSMVEEFMLLANISVAKKIHEEFSEHALLRKHPAPPPSNYEILVKAARSRNLEIKTDTAKSLAESLDQAESPTFPYLNTLLRILATRCMMQAVYFCSGMDNDFHHYGLASPIYTHFTSPIRRYADVIVHRLLAVAIGADCTYPELTDKHKLADICKNLNFRHKMAQYAQRASVAFHTQLFFKSKGIVSEEAYILFVRKNAIVVLIPKYGLEGTVFFEEKDKPNPQLIYDDEIPSLKIEDTVFHVFDKVKVKIMLDSSNLQHQKIRMSLVEPQIPGISIPTDTSNMDLNGPKKKKMKLGK
binding [2]: binds

B2: SART3 (protein, UniProt Q15020 1-963)
chain: MATAAETSASEPEAESKAGPKADGEEDEVKAARTRRKVLSRAVAAATYKTMGPAWDQQEEGVSESDGDEYAMASSAESSPGEYEWEYDEEEEKNQLEIERLEEQLSINVYDYNCHVDLIRLLRLEGELTKVRMARQKMSEIFPLTEELWLEWLHDEISMAQDGLDREHVYDLFEKAVKDYICPNIWLEYGQYSVGGIGQKGGLEKVRSVFERALSSVGLHMTKGLALWEAYREFESAIVEAARLEKVHSLFRRQLAIPLYDMEATFAEYEEWSEDPIPESVIQNYNKALQQLEKYKPYEEALLQAEAPRLAEYQAYIDFEMKIGDPARIQLIFERALVENCLVPDLWIRYSQYLDRQLKVKDLVLSVHNRAIRNCPWTVALWSRYLLAMERHGVDHQVISVTFEKALNAGFIQATDYVEIWQAYLDYLRRRVDFKQDSSKELEELRAAFTRALEYLKQEVEERFNESGDPSCVIMQNWARIEARLCNNMQKARELWDSIMTRGNAKYANMWLEYYNLERAHGDTQHCRKALHRAVQCTSDYPEHVCEVLLTMERTEGSLEDWDIAVQKTETRLARVNEQRMKAAEKEAALVQQEEEKAEQRKRARAEKKALKKKKKIRGPEKRGADEDDEKEWGDDEEEQPSKRRRVENSIPAAGETQNVEVAAGPAGKCAAVDVEPPSKQKEKAASLKRDMPKVLHDSSKDSITVFVSNLPYSMQEPDTKLRPLFEACGEVVQIRPIFSNRGDFRGYCYVEFKEEKSALQALEMDRKSVEGRPMFVSPCVDKSKNPDFKVFRYSTSLEKHKLFISGLPFSCTKEELEEICKAHGTVKDLRLVTNRAGKPKGLAYVEYENESQASQAVMKMDGMTIKENIIKVAISNPPQRKVPEKPETRKAPGGPMLLPQTYGARGKGRTQLSLLPRALQRPSAAAPQAENGPAAAPAVAAPAATEAPKMSNADFAKLFLRK
binding [2]: binds

B4: histone deubiquitinase MYSM1 (enzyme, UniProt Q5VVJ2 1-828)
chain: MAAEEADVDIEGDVVAAAGAQPGSGENTASVLQKDHYLDSSWRTENGLIPWTLDNTISEENRAVIEKMLLEEEYYLSKKSQPEKVWLDQKEDDKKYMKSLQKTAKIMVHSPTKPASYSVKWTIEEKELFEQGLAKFGRRWTKISKLIGSRTVLQVKSYARQYFKNKVKCGLDKETPNQKTGHNLQVKNEDKGTKAWTPSCLRGRADPNLNAVKIEKLSDDEEVDITDEVDELSSQTPQKNSSSDLLLDFPNSKMHETNQGEFITSDSQEALFSKSSRGCLQNEKQDETLSSSEITLWTEKQSNGDKKSIELNDQKFNELIKNCNKHDGRGIIVDARQLPSPEPCEIQKNLNDNEMLFHSCQMVEESHEEEELKPPEQEIEIDRNIIQEEEKQAIPEFFEGRQAKTPERYLKIRNYILDQWEICKPKYLNKTSVRPGLKNCGDVNCIGRIHTYLELIGAINFGCEQAVYNRPQTVDKVRIRDRKDAVEAYQLAQRLQSMRTRRRRVRDPWGNWCDAKDLEGQTFEHLSAEELAKRREEEKGRPVKSLKVPRPTKSSFDPFQLIPCNFFSEEKQEPFQVKVASEALLIMDLHAHVSMAEVIGLLGGRYSEVDKVVEVCAAEPCNSLSTGLQCEMDPVSQTQASETLAVRGFSVIGWYHSHPAFDPNPSLRDIDTQAKYQSYFSRGGAKFIGMIVSPYNRNNPLPYSQITCLVISEEISPDGSYRLPYKFEVQQMLEEPQWGLVFEKTRWIIEKYRLSHSSVPMDKIFRRDSDLTCLQKLLECMRKTLSKVTNCFMAEEFLTEIENLFLSNYKSNQENGVTEENCTKELLM
binding [1]: binds

The remaining lines, values ahead:

binding [1]: binds
Molecule: DX39B (from UniProt Q13838 1-428)

binding [1]: binds
Molecule: KI67 (from UniProt P46013 1-3256)

binding [1]: binds
Molecule: ITSN1 (from UniProt Q15811 1-1721)

binding [1]: binds
Molecule: chromodomain helicase CHD8 (from UniProt Q9HCK8 1-2581)

binding [1]: binds
Molecule: HPCA (from UniProt P84074 1-193)

binding [1]: binds
Molecule: telomerase reverse transcriptase TERT (from UniProt O14746 1-1132) (enzyme)

binding [2]: binds
B3: ISY1 (protein, UniProt Q9ULR0 1-285)
chain: MARNAEKAMTALARFRQAQLEEGKVKERRPFLASECTELPKAEKWRRQIIGEISKKVAQIQNAGLGEFRIRDLNDEINKLLREKGHWEVRIKELGGPDYGKVGPKMLDHEGKEVPGNRGYKYFGAAKDLPGVRELFEKEPLPPPRKTRAELMKAIDFEYYGYLDEDDGVIVPLEQEYEKKLRAELVEKWKAEREARLARGEKEEEEEEEEEINIYAVTEEESDEEGSQEKGGDDSQQKFIAHVPVPSQQEIEEALVRRKKMELLQKYASETLQAQSEEARRLLGY

binding [1]: binds
B5: non-receptor serine/threonine protein kinase MAP3K12 (enzyme, UniProt Q12852 1-859)
chain: MACLHETRTPSPSFGGFVSTLSEASMRKLDPDTSDCTPEKDLTPTHVLQLHEQDAGGPGGAAGSPESRASRVRADEVRLQCQSGSGFLEGLFGCLRPVWTMIGKAYSTEHKQQQEDLWEVPFEEILDLQWVGSGAQGAVFLGRFHGEEVAVKKVRDLKETDIKHLRKLKHPNIITFKGVCTQAPCYCILMEFCAQGQLYEVLRAGRPVTPSLLVDWSMGIAGGMNYLHLHKIIHRDLKSPNMLITYDDVVKISDFGTSKELSDKSTKMSFAGTVAWMAPEVIRNEPVSEKVDIWSFGVVLWELLTGEIPYKDVDSSAIIWGVGSNSLHLPVPSSCPDGFKILLRQCWNSKPRNRPSFRQILLHLDIASADVLSTPQETYFKSQAEWREEVKLHFEKIKSEGTCLHRLEEELVMRRREELRHALDIREHYERKLERANNLYMELNALMLQLELKERELLRREQALERRCPGLLKPHPSRGLLHGNTMEKLIKKRNVPQKLSPHSKRPDILKTESLLPKLDAALSGVGLPGCPKGPPSPGRSRRGKTRHRKASAKGSCGDLPGLRTAVPPHEPGGPGSPGGLGGGPSAWEACPPALRGLHHDLLLRKMSSSSPDLLSAALGSRGRGATGGAGDPGSPPPARGDTPPSEGSAPGSTSPDSPGGAKGEPPPPVGPGEGVGLLGTGREGTSGRGGSRAGSQHLTPAALLYRAAVTRSQKRGISSEEEEGEVDSEVELTSSQRWPQSLNMRQSLSTFSSENPSDGEEGTASEPSPSGTPEVGSTNTDERPDERSDDMCSQGSEIPLDPPPSEVIPGPEPSSLPIPHQELLRERGPPNSEDSDCDSTELDNSNSVDALRPPASLPP

binding [2]: binds
B6: ubiquitin carboxyl terminal hydrolase USP4 (protein, UniProt Q13107 1-963)
chain: MAEGGGCRERPDAETQKSELGPLMRTTLQRGAQWYLIDSRWFKQWKKYVGFDSWDMYNVGEHNLFPGPIDNSGLFSDPESQTLKEHLIDELDYVLVPTEAWNKLLNWYGCVEGQQPIVRKVVEHGLFVKHCKVEVYLLELKLCENSDPTNVLSCHFSKADTIATIEKEMRKLFNIPAERETRLWNKYMSNTYEQLSKLDNTVQDAGLYQGQVLVIEPQNEDGTWPRQTLQSKSSTAPSRNFTTSPKSSASPYSSVSASLIANGDSTSTCGMHSSGVSRGGSGFSASYNCQEPPSSHIQPGLCGLGNLGNTCFMNSALQCLSNTAPLTDYFLKDEYEAEINRDNPLGMKGEIAEAYAELIKQMWSGRDAHVAPRMFKTQVGRFAPQFSGYQQQDSQELLAFLLDGLHEDLNRVKKKPYLELKDANGRPDAVVAKEAWENHRLRNDSVIVDTFHGLFKSTLVCPECAKVSVTFDPFCYLTLPLPLKKDRVMEVFLVPADPHCRPTQYRVTVPLMGAVSDLCEALSRLSGIAAENMVVADVYNHRFHKIFQMDEGLNHIMPRDDIFVYEVCSTSVDGSECVTLPVYFRERKSRPSSTSSASALYGQPLLLSVPKHKLTLESLYQAVCDRISRYVKQPLPDEFGSSPLEPGACNGSRNSCEGEDEEEMEHQEEGKEQLSETEGSGEDEPGNDPSETTQKKIKGQPCPKRLFTFSLVNSYGTADINSLAADGKLLKLNSRSTLAMDWDSETRRLYYDEQESEAYEKHVSMLQPQKKKKTTVALRDCIELFTTMETLGEHDPWYCPNCKKHQQATKKFDLWSLPKILVVHLKRFSYNRYWRDKLDTVVEFPIRGLNMSEFVCNLSARPYVYDLIAVSNHYGAMGVGHYTAYAKNKLNGKWYYFDDSNVSLASEDQIVTKAAYVLFYQRRDDEFYKTPSLSSSGSSDGGTRPSSSQQGFGDDEACSMDTN
